Residue numbers refer to the chain shown, from its start. Results are given in words; binding and its absence hold for the method and conditions named. Some results given as binding are weak or reduced against the parent protein; the word gives no strength.
B1: 2V1-EAAAK-Turn (VHH)
chain: QLQLVESGGGSVQPGGSLRLSCEVSGRTFSSYTMGWFRQAPGKEREFVVAISKGGYKYDSVSLEARFTISKDNTKNTVYLQMNSLKPEDTAVYYCAATRAYGSSRLRLADTYEYWGQGTQVTVSSPDSEAAAKEAAAKEAAAKEAAAKEAAAKPDGSSQLQLVESGGGSVQPGGSLRLSCEVSGRTFSSYTMGWFRQAPGKEREFVVAISKGGYKYDSVSLEARFTISKDNTKNTVYLQMNSLKPEDTAVYYCAATRAYGSSRLRLADTYEYWGQGTQVTVSS
notes: Tandem bivalent nanobody
B2: 2V15-EAAAK-Turn (VHH)
chain: B1 chain with S30A, A97G, D110E, S188A, A255G, D268E
notes: Tandem bivalent nanobody

Sequences of proteins named here, by UniProt entry; tags and fusion partners are left off. A change or cut given only in a name is not applied to a line headed by its entry. A line that says so, or that is headed by a name, gives the form on record, which may keep a tag or linker.
human VEGFA165 (P15692-4, form named): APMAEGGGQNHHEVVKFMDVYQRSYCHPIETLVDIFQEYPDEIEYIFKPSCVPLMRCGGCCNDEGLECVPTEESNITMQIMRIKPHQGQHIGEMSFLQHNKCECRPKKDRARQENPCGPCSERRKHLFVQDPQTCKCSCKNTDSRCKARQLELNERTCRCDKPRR

Legend:
human VEGFA165 [1] = molecular target: T1, human VEGFA165 (human, UniProt P15692-4 27-191); test: ELISA, human VEGFA165 coated on the plate, anti-His detection
T1 construct: Bought protein from two suppliers, treated as one molecule; the supplier is named under assay; also called antigen VEGFA

human VEGFA165 [2] = molecular target: T1, human VEGFA165; test: competitive ELISA, VEGFA coated on the plate, competitor VEGFR2-ECD-Fc at 1 nM, anti-human IgG detection

binding (human VEGFA165 [1]) | binding (human VEGFA165 [2]) | Binder
binds | binds | B1
binds | binds | B2
